Earlier results on 1 compound are cited in US7537786B2, “Complex of drug-carbon nanohorn and a process for producing the complex” (NEC Corporation, priority 2005, dated 2009).

The conditions of the series: 25° C.; cited from earlier work.

Turning to `C[C@@H]1C[C@H]2[C@@H]3CCC4=CC(=O)C=C[C@]4(C)[C@@]3(F)[C@@H](O)C[C@]2(C)[C@@]1(O)C(=O)CO` [DEX, Dexamethasone], the solubility is reported as 10 mg/100 ml H2O.
